Assay [1] addresses calcitonin receptor-like receptor (human (endogenous in HDLEC)) (UniProt Q16602). The experiment in a line: affinity purification with mass spectrometry.
The target is the same in assay [2]. The experiment in a line: affinity purification with mass spectrometry. The source holds these as a separate data set.

Chains of the proteins cited; added tags and fusions are not shown. Residues count along the entry.
UniProt Q16602, residues 23-461: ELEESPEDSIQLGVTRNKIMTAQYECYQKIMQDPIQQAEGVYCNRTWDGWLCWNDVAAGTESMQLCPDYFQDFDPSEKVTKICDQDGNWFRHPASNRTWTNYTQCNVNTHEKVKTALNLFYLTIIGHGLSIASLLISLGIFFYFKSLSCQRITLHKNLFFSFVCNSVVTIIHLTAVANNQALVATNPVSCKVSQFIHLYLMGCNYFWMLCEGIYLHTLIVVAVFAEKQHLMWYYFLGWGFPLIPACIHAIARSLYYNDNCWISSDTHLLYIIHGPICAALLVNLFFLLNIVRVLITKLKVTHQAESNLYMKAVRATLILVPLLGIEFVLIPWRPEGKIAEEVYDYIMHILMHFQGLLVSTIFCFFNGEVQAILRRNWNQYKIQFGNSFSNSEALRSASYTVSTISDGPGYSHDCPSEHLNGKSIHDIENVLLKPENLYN
UniProt Q13557: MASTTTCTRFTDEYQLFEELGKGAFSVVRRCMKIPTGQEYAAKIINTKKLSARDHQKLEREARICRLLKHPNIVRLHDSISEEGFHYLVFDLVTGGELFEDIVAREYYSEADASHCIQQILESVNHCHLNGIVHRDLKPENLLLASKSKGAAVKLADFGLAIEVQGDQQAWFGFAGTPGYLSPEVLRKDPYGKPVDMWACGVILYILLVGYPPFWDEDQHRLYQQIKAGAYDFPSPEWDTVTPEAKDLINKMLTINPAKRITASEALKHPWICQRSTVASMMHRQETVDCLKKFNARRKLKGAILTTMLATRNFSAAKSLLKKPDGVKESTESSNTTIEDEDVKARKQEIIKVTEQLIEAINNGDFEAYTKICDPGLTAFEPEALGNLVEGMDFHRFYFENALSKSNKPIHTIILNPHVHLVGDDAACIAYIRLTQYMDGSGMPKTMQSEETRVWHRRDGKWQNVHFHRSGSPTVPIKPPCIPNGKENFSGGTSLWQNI
UniProt Q13200: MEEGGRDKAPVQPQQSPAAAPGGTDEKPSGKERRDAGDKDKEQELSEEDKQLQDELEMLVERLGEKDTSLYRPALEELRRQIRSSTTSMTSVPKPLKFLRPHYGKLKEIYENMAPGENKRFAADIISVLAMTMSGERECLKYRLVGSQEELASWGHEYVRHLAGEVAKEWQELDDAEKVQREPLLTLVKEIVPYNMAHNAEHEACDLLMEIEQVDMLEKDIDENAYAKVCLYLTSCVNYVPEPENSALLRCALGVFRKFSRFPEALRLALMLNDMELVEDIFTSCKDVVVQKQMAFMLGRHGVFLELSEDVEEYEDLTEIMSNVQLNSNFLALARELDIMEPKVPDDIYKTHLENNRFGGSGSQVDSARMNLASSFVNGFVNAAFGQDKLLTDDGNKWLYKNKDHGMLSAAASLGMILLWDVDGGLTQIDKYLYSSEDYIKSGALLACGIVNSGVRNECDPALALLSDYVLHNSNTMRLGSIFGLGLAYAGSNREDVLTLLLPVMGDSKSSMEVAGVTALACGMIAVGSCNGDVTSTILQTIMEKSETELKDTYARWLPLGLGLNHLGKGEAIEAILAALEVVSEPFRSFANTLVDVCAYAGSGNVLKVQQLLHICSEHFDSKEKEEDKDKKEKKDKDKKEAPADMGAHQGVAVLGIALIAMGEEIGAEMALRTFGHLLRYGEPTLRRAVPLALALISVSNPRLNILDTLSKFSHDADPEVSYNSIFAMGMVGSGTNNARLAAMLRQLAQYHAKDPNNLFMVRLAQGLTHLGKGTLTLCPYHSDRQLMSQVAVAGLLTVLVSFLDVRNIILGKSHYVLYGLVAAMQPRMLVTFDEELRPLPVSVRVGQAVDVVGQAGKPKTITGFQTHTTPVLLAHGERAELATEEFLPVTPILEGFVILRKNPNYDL
UniProt P27824, residues 21-592: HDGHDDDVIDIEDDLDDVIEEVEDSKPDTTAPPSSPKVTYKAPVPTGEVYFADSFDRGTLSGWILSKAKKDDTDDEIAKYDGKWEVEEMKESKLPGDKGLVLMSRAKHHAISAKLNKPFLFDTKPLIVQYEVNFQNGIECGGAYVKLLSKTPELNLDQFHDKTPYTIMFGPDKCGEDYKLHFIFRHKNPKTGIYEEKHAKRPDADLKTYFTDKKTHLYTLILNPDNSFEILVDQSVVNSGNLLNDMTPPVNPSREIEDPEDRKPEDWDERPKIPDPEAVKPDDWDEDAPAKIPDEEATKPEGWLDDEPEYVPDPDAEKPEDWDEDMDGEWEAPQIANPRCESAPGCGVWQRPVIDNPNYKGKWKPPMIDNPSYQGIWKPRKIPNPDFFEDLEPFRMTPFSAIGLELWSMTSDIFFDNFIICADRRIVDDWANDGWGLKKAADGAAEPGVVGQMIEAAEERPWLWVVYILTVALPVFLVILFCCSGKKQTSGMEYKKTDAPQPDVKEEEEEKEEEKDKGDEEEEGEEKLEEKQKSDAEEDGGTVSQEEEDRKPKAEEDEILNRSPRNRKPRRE
UniProt P49407: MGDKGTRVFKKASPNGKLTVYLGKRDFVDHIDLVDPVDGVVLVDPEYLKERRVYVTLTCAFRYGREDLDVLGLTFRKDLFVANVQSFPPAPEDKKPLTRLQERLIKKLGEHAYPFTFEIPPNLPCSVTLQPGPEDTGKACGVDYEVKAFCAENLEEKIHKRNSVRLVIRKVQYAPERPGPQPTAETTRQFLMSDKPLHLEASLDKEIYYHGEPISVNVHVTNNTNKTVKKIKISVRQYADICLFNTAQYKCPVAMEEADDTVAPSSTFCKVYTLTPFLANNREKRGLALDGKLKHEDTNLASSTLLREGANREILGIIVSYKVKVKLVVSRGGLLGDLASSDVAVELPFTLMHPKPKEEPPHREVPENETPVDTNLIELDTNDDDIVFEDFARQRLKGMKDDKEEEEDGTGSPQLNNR
UniProt P51784: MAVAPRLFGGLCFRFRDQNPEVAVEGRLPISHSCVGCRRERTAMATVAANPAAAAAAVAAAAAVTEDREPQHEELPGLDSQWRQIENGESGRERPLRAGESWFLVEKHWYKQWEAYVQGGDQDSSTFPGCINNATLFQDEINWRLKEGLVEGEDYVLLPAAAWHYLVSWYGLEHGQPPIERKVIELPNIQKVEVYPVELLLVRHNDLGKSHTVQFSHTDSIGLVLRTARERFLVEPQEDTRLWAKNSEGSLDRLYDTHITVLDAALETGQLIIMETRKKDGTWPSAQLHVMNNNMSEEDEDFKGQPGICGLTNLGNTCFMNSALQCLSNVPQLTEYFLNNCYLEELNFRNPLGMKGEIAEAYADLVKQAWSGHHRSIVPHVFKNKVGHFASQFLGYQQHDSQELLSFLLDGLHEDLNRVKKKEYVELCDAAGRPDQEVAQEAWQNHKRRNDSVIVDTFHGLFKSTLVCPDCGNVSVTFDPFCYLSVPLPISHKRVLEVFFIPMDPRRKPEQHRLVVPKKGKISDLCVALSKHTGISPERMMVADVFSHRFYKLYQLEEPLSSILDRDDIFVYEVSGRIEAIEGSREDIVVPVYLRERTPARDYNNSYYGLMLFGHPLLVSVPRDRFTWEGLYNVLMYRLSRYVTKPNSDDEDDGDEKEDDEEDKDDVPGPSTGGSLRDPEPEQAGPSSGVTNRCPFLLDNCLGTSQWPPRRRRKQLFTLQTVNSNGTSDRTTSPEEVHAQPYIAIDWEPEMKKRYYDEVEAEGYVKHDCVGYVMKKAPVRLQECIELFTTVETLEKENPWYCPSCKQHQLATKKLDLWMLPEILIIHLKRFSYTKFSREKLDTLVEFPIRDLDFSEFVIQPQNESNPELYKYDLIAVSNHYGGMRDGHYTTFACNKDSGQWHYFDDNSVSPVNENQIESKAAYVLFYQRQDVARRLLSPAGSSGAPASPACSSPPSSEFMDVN
UniProt Q13555: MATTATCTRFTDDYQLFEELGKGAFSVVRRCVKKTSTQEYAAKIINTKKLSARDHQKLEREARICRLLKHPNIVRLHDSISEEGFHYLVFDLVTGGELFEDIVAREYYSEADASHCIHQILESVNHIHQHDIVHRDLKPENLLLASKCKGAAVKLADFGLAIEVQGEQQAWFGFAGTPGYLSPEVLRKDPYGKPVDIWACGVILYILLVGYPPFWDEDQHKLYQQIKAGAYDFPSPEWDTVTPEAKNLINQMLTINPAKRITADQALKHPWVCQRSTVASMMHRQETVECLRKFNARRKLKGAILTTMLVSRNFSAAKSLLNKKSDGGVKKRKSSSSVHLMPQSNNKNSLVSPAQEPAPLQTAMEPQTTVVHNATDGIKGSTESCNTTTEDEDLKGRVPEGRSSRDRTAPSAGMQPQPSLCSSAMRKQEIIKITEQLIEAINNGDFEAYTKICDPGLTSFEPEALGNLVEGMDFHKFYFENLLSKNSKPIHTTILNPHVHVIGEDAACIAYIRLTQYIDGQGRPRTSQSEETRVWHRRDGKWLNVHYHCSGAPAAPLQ
UniProt Q9Y5S2: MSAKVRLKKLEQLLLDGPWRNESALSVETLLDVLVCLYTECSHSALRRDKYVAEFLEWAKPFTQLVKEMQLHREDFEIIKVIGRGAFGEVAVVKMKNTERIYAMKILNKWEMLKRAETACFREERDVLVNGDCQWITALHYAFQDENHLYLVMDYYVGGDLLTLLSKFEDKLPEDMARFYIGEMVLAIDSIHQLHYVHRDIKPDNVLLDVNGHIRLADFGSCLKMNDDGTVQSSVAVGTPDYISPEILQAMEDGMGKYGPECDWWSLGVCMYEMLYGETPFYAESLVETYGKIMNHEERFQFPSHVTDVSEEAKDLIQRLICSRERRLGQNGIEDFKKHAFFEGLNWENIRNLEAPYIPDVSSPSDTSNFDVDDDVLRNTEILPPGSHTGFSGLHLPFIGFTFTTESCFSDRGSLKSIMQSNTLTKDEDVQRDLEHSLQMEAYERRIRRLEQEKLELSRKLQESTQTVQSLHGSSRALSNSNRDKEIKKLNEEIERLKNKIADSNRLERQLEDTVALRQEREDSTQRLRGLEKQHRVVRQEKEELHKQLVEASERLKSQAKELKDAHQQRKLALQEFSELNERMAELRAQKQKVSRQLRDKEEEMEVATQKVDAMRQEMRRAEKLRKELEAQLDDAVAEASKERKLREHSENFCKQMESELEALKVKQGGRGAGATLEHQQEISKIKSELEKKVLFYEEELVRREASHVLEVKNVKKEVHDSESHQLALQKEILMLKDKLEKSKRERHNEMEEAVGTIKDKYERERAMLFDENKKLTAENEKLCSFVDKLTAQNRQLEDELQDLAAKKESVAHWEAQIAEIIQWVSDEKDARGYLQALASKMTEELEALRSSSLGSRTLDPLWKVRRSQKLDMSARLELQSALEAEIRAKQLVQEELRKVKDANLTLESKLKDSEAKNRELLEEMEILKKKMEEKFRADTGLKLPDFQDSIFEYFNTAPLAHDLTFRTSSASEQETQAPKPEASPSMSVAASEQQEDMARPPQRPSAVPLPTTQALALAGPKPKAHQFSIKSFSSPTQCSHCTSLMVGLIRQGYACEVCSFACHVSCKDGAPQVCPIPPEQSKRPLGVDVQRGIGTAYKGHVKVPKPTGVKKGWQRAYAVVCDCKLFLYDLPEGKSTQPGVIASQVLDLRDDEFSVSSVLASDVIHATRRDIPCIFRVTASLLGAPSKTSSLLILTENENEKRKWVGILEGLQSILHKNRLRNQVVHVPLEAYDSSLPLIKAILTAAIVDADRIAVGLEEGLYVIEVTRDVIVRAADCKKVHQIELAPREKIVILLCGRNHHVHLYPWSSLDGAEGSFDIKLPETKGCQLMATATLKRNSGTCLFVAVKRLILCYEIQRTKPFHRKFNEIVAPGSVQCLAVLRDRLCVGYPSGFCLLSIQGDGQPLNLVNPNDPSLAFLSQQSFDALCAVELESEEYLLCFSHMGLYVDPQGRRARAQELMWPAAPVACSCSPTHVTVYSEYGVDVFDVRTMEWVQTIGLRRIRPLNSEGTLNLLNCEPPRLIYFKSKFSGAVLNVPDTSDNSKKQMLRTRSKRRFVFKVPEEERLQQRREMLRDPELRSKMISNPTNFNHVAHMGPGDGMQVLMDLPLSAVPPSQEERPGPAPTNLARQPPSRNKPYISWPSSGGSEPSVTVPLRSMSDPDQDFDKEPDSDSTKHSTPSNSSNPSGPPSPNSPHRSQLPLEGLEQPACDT

Read-outs that look alike come from different tables or passages of the source. Results are given in words; binding and its absence hold for the method and conditions named. In cells and extracts the contact can be indirect. These calls come from enrichment with a bait or labelling near it, and not all partners need be listed. For some assays here: A no says only that the protein was not detected with the bait.

For the molecule “calcium/calmodulin dependent protein kinase II delta (from UniProt Q13557 1-499) (enzyme)”, the binding result in assay [1] was “binds”.

With PSMD2 (from UniProt Q13200 1-908), the binding result in assay [1] is reported as “binds”.

Regarding “valosin containing protein (from UniProt P55072 1-806) (enzyme)”, the binding result in assay [1] is recorded as “binds”.

Take CANX (from UniProt P27824 21-592): in assay [1], the binding entry is “binds”.

In the case of “β-arrestin 1 (from UniProt P49407 1-418)”, the binding result in assay [1] was “no binding”.

As for “deubiquitinase USP11 (from UniProt P51784 1-963) (enzyme)”, in assay [1], the binding entry is given as “binds”.

“CAMK2G (from UniProt Q13555 1-558) (enzyme)”: in assay [1], the binding result was “binds”.

As for “serine/threonine-protein kinase MRCK beta (from UniProt Q9Y5S2 1-1711) (enzyme)”, the binding result in assay [1] is given as “binds”.

B1: protein ERGIC-53 (protein, UniProt P49257 31-510)
chain: DGVGGDPAVALPHRRFEYKYSFKGPHLVQSDGTVPFWAHAGNAIPSSDQIRVAPSLKSQRGSVWTKTKAAFENWEVEVTFRVTGRGRIGADGLAIWYAENQGLEGPVFGSADLWNGVGIFFDSFDNDGKKNNPAIVIIGNNGQIHYDHQNDGASQALASCQRDFRNKPYPVRAKITYYQNTLTVMINNGFTPDKNDYEFCAKVENMIIPAQGHFGISAATGGLADDHDVLSFLTFQLTEPGKEPPTPDKEISEKEKEKYQEEFEHFQQELDKKKEEFQKGHPDLQGQPAEEIFESVGDRELRQVFEGQNRIHLEIKQLNRQLDMILDEQRRYVSSLTEEISKRGAGMPGQHGQITQQELDTVVKTQHEILRQVNEMKNSMSETVRLVSGMQHPGSAGGVYETTQHFIDIKEHLHIVKRDIDNLVQRNMPSNEKPKCPELPPFPSCLSTVHFIIFVVVQTVLFIGYIMYRSQQEAAAKKFF
As to B1, in assay [2], the binding entry is reported as “binds”.

B2: GYG1 (enzyme, UniProt P46976 1-350)
chain: MTDQAFVTLTTNDAYAKGALVLGSSLKQHRTTRRLVVLATPQVSDSMRKVLETVFDEVIMVDVLDSGDSAHLTLMKRPELGVTLTKLHCWSLTQYSKCVFMDADTLVLANIDDLFDREELSAAPDPGWPDCFNSGVFVYQPSVETYNQLLHLASEQGSFDGGDQGILNTFFSSWATTDIRKHLPFIYNLSSISIYSYLPAFKVFGASAKVVHFLGRVKPWNYTYDPKTKSVKSEAHDPNMTHPEFLILWWNIFTTNVLPLLQQFGLVKDTCSYVNVLSDLVYTLAFSCGFCRKEDVSGAISHLSLGEIPAMAQPFVSSEERKERWEQGQADYMGADSFDNIKRKLDTYLQ
As for B2, in assay [2], the binding entry is listed as “binds”.

B3: aconitase 1 (enzyme, UniProt P21399 1-889)
chain: MSNPFAHLAEPLDPVQPGKKFFNLNKLEDSRYGRLPFSIRVLLEAAIRNCDEFLVKKQDIENILHWNVTQHKNIEVPFKPARVILQDFTGVPAVVDFAAMRDAVKKLGGDPEKINPVCPADLVIDHSIQVDFNRRADSLQKNQDLEFERNRERFEFLKWGSQAFHNMRIIPPGSGIIHQVNLEYLARVVFDQDGYYYPDSLVGTDSHTTMIDGLGILGWGVGGIEAEAVMLGQPISMVLPQVIGYRLMGKPHPLVTSTDIVLTITKHLRQVGVVGKFVEFFGPGVAQLSIADRATIANMCPEYGATAAFFPVDEVSITYLVQTGRDEEKLKYIKKYLQAVGMFRDFNDPSQDPDFTQVVELDLKTVVPCCSGPKRPQDKVAVSDMKKDFESCLGAKQGFKGFQVAPEHHNDHKTFIYDNTEFTLAHGSVVIAAITSCTNTSNPSVMLGAGLLAKKAVDAGLNVMPYIKTSLSPGSGVVTYYLQESGVMPYLSQLGFDVVGYGCMTCIGNSGPLPEPVVEAITQGDLVAVGVLSGNRNFEGRVHPNTRANYLASPPLVIAYAIAGTIRIDFEKEPLGVNAKGQQVFLKDIWPTRDEIQAVERQYVIPGMFKEVYQKIETVNESWNALATPSDKLFFWNSKSTYIKSPPFFENLTLDLQPPKSIVDAYVLLNLGDSVTTDHISPAGNIARNSPAARYLTNRGLTPREFNSYGSRRGNDAVMARGTFANIRLLNRFLNKQAPQTIHLPSGEILDVFDAAERYQQAGLPLIVLAGKEYGAGSSRDWAAKGPFLLGIKAVLAESYERIHRSNLVGMGVIPLEYLPGENADALGLTGQERYTIIIPENLKPQMKVQVKLDTGKTFQAVMRFDTDVELTYFLNGGILNYMIRKMAK
As to B3, in assay [2], the binding entry is listed as “binds”.

B4: RASIP1 (protein, UniProt Q5U651 1-963)
chain: MLSGERKEGGSPRFGKLHLPVGLWINSPRKQLAKLGRRWPSAASVKSSSSDTGSRSSEPLPPPPPHVELRRVGAVKAAGGASGSRAKRISQLFRGSGTGTTGSSGAGGPGTPGGAQRWASEKKLPELAAGVAPEPPLATRATAPPGVLKIFGAGLASGANYKSVLATARSTARELVAEALERYGLAGSPGGGPGESSCVDAFALCDALGRPAAAGVGSGEWRAEHLRVLGDSERPLLVQELWRARPGWARRFELRGREEARRLEQEAFGAADSEGTGAPSWRPQKNRSRAASGGAALASPGPGTGSGAPAGSGGKERSENLSLRRSVSELSLQGRRRRQQERRQQALSMAPGAADAQIGTADPGDFDQLTQCLIQAPSNRPYFLLLQGYQDAQDFVVYVMTREQHVFGRGGNSSGRGGSPAPYVDTFLNAPDILPRHCTVRAGPEHPAMVRPSRGAPVTHNGCLLLREAELHPGDLLGLGEHFLFMYKDPRTGGSGPARPPWLPARPGATPPGPGWAFSCRLCGRGLQERGEALAAYLDGREPVLRFRPREEEALLGEIVRAAAAGSGDLPPLGPATLLALCVQHSARELELGHLPRLLGRLARLIKEAVWEKIKEIGDRQPENHPEGVPEVPLTPEAVSVELRPLMLWMANTTELLSFVQEKVLEMEKEADQEDPQLCNDLELCDEAMALLDEVIMCTFQQSVYYLTKTLYSTLPALLDSNPFTAGAELPGPGAELGAMPPGLRPTLGVFQAALELTSQCELHPDLVSQTFGYLFFFSNASLLNSLMERGQGRPFYQWSRAVQIRTNLDLVLDWLQGAGLGDIATEFFRKLSMAVNLLCVPRTSLLKASWSSLRTDHPTLTPAQLHHLLSHYQLGPGRGPPAAWDPPPAEREAVDTGDIFESFSSHPPLILPLGSSRLRLTGPVTDDALHRELRRLRRLLWDLEQQELPANYRHGPPVATSP
Consider B4, for which the binding entry in assay [2] is recorded as “binds”.

B5: FILIP1L (protein, UniProt Q4L180 1-1135)
chain: MRSRGSDTEGSAQKKFPRHTKGHSFQGPKNMKHRQQDKDSPSESDVILPCPKAEKPHSGNGHQAEDLSRDDLLFLLSILEGELQARDEVIGILKAEKMDLALLEAQYGFVTPKKVLEALQRDAFQAKSTPWQEDIYEKPMNELDKVVEKHKESYRRILGQLLVAEKSRRQTILELEEEKRKHKEYMEKSDEFICLLEQECERLKKLIDQEIKSQEEKEQEKEKRVTTLKEELTKLKSFALMVVDEQQRLTAQLTLQRQKIQELTTNAKETHTKLALAEARVQEEEQKATRLEKELQTQTTKFHQDQDTIMAKLTNEDSQNRQLQQKLAALSRQIDELEETNRSLRKAEEELQDIKEKISKGEYGNAGIMAEVEELRKRVLDMEGKDEELIKMEEQCRDLNKRLERETLQSKDFKLEVEKLSKRIMALEKLEDAFNKSKQECYSLKCNLEKERMTTKQLSQELESLKVRIKELEAIESRLEKTEFTLKEDLTKLKTLTVMFVDERKTMSEKLKKTEDKLQAASSQLQVEQNKVTTVTEKLIEETKRALKSKTDVEEKMYSVTKERDDLKNKLKAEEEKGNDLLSRVNMLKNRLQSLEAIEKDFLKNKLNQDSGKSTTALHQENNKIKELSQEVERLKLKLKDMKAIEDDLMKTEDEYETLERRYANERDKAQFLSKELEHVKMELAKYKLAEKTETSHEQWLFKRLQEEEAKSGHLSREVDALKEKIHEYMATEDLICHLQGDHSVLQKKLNQQENRNRDLGREIENLTKELERYRHFSKSLRPSLNGRRISDPQVFSKEVQTEAVDNEPPDYKSLIPLERAVINGQLYEESENQDEDPNDEGSVLSFKCSQSTPCPVNRKLWIPWMKSKEGHLQNGKMQTKPNANFVQPGDLVLSHTPGQPLHIKVTPDHVQNTATLEITSPTTESPHSYTSTAVIPNCGTPKQRITILQNASITPVKSKTSTEDLMNLEQGMSPITMATFARAQTPESCGSLTPERTMSPIQVLAVTGSASSPEQGRSPEPTEISAKHAIFRVSPDRQSSWQFQRSNSNSSSVITTEDNKIHIHLGSPYMQAVASPVRPASPSAPLQDNRTQGLINGALNKTTNKVTSSITITPTATPLPRQSQITVEPLLLPH
With B5, the binding entry in assay [2] was “binds”.

B6: PANK4 (protein, UniProt Q9NVE7 1-773)
chain: MAECGASGSGSSGDSLDKSITLPPDEIFRNLENAKRFAIDIGGSLTKLAYYSTVQHKVAKVRSFDHSGKDTEREHEPPYEISVQEEITARLHFIKFENTYIEACLDFIKDHLVNTETKVIQATGGGAYKFKDLIEEKLRLKVDKEDVMTCLIKGCNFVLKNIPHEAFVYQKDSDPEFRFQTNHPHIFPYLLVNIGSGVSIVKVETEDRFEWVGGSSIGGGTFWGLGALLTKTKKFDELLHLASRGQHSNVDMLVRDVYGGAHQTLGLSGNLIASSFGKSATADQEFSKEDMAKSLLHMISNDIGQLACLHARLHSLDRVYFGGFFIRGHPVTMRTITYSINFFSKGEVQALFLRHEGYLGAIGAFLKGAEQDNPNQYSWGENYAGSSGLMSASPELGPAQRARSGTFDLLEMDRLERPLVDLPLLLDPPSYVPDTVDLTDDALARKYWLTCFEEALDGVVKRAVASQPDSVDAAERAEKFRQKYWNKLQTLRQQPFAYGTLTVRSLLDTREHCLNEFNFPDPYSKVKQRENGVALRCFPGVVRSLDALGWEERQLALVKGLLAGNVFDWGAKAVSAVLESDPYFGFEEAKRKLQERPWLVDSYSEWLQRLKGPPHKCALIFADNSGIDIILGVFPFVRELLLRGTEVILACNSGPALNDVTHSESLIVAERIAGMDPVVHSALQEERLLLVQTGSSSPCLDLSRLDKGLAALVRERGADLVVIEGMGRAVHTNYHAALRCESLKLAVIKNAWLAERLGGRLFSVIFKYEVPAE
In the case of B6, the binding result in assay [2] was “binds”.

(Values after doi:10.1101/2023.04.18.537143.)
